No constants are given. Whether binding was seen depends on the method and setting. Some binding calls cover weakened binding; strength is not graded here.
B1: HEY1, made in the cell-free protein production system (natural protein)
chain: MKRAHPEYSSSDSELDETIEVEKESADENGNLSSALGSMSPTTSSQILARKRRRGIIEKRRRDRINNSLSELRRLVPSAFEKQGSAKLEKAEILQMTVDHLKMLHTAGGKGYFDAHALAMDYRSLGFRECLAEVARYLSIIEGLDASDPLRVRLVSHLNNYASQREAASGAHAGLGHIPWGTVFGHHPHIAHPLLLPQNGHGNAGTTASPTEPHHQGRLGSAHPEAPALRAPPSGSLGPVLPVVTSASKLSPPLLSSVASLSAFPFSFGSFHLLSPNALSPSAPTQAANLGKPYRPWGTEIGAF

By UniProt entry, the sequences of proteins in these tests, tags left out.
UniProt Q9BT81: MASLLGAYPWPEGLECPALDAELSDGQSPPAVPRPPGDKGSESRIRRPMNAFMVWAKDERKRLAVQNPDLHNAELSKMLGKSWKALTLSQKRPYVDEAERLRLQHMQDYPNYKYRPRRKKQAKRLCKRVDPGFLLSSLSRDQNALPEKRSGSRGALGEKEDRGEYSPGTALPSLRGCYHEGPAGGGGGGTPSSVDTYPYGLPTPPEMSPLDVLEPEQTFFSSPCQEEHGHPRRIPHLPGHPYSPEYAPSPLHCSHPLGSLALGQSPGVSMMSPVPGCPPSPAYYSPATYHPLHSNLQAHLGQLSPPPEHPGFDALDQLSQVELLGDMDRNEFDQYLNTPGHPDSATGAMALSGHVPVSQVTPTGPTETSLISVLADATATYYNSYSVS
UniProt Q06330: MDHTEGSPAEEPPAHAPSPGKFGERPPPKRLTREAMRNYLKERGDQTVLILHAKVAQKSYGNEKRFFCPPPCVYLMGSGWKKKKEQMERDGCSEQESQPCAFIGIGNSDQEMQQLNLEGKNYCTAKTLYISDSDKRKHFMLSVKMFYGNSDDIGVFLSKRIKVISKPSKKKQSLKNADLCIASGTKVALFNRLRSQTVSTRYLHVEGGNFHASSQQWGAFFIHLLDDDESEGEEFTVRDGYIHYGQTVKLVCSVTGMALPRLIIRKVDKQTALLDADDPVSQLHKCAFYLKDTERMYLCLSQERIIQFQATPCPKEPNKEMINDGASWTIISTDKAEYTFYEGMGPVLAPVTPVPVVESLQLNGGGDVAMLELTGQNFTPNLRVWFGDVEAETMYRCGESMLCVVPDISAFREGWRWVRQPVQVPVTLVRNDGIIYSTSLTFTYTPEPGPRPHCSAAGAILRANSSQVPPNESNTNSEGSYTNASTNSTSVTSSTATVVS

Target: SOX7, made in the cell-free protein production system (UniProt Q9BT81)
Experiment: AlphaScreen or HTRF

Molecule | binding
RBPJ, made in the cell-free protein production system (from UniProt Q06330 1-500) | binds
B1 | binds
